According to the supplement of paper PMC11732987, “Enantioselective OTUD7B fragment discovery through chemoproteomics screening and high-throughput optimisation” (Communications Chemistry, 2025):
Some of the results follow. The data scatter; read single values as rough.

compound: ClCC(=O)N[C@H]1CCCc2ccccc12; assay: log2 mean competition ratio of IA-DTB cysteine labelling (DMSO/compound) (log2 ratio); higher = stronger cysteine engagement by compound; conditions: 200 µM; treatment time: 4 h; cell line lysate: HEK293T
Protocol: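 IA-DTB competitive cysteine chemoproteomics in HEK293T RIPA lysate. Lysates were treated with compound 29 or 30 at 50 or 200 µM for 4 h, then IA-DTB (500 µM, 1 h), trypsin-digested, NeutrAvidin-enriched and analysed by diaPASEF. Competition ratio = intensity DMSO / intensity compound (n=4 treated, n=64 DMSO); binding: mean log2 CR ≥ 1 and p ≤ 0.05 plus QC filters. Target is the cysteine site.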

Target | log2 mean competition ratio
CLASP2 C662 (UniProt O75122) | -0.0717
CLMN C445 | 0.228
CPS1 C225 (UniProt P31327) | -0.0426
COBL C1032 (UniProt O75128) | 0.149
CPSF3 C345 (UniProt Q9UKF6) | -0.0477
COG7 C475 (UniProt P83436) | -0.0618
CLTCL1 C934 (UniProt P53675) | 0.122
CNKSR3 C191 | 0.385
COG2 C358 (UniProt Q14746) | 0.00638
COBLL1 C177 (UniProt Q53SF7) | -0.131
CIC C1432 | 0.221
CLEC16A C657 (UniProt Q2KHT3) | -0.0397
CPSF4 C41 (UniProt O95639) | 0.126
CLGN C511 (UniProt O14967) | 0.177
COBL C654 (UniProt O75128) | -0.18
COPG1 C169 (UniProt Q9Y678) | -0.148
COIL C126 (UniProt P38432) | 0.234
CPSF6 C476 (UniProt Q16630) | -0.0155
COQ7 C137 (UniProt Q99807) | -0.399

Random excerpt: 2 records from the list, in no set order.
Target | log2 mean competition ratio
COBLL1 C177 (UniProt Q53SF7) | -0.131
CPSF3 C345 (UniProt Q9UKF6) | -0.0477

The list goes on.

Target | log2 mean competition ratio
CIAO1 C322 (UniProt O76071) | 0.541
COLEC12 C27 | -0.00552
CHST11 C128 (UniProt Q9NPF2) | 0.349
COQ8A C620 (UniProt Q8NI60) | 0.152
CRBN C205 (UniProt Q96SW2) | -0.2
COPB2 C741 (UniProt P35606) | -0.11
CKAP5 C592 (UniProt Q14008) | -0.0255
COMMD6 C35 (UniProt Q7Z4G1) | 0.286
CLK3 C321 (UniProt P49761) | -0.00487
CLTCL1 C459 (UniProt P53675) | -0.0394
CHST14 C117 (UniProt Q8NCH0) | -0.0557
COG4 C310 (UniProt Q9H9E3) | -0.0501
CLTCL1 C617 (UniProt P53675) | -0.392
CHEK2 C231 (UniProt O96017) | 0.218
COIL C239 (UniProt P38432) | 0.112
CNBP C111 (UniProt P62633) | 0.322
COG3 C697 (UniProt Q96JB2) | -0.249
COMMD4 C107 (UniProt Q9H0A8) | -0.194
